Data taken from patent publication US9718869B2 (MANUS PHARMACEUTICALS (CANADA) LTD., priority 2012, dated 2017).

Assay: general procedure: Fmoc solid-phase peptide synthesis; Wang resin, 0.37 mmol/g
Settings: whole synthesis, scale of the general procedure 100 mg Wang polymer

(FR-3-NP-1)2-Lys-OH
final HPLC purity (UV 220 nm): >80%

(R-2-FR-3-NP-1)2-Lys-OH (WSERFYECCKE; dimer on Lys-OH, cyclo(Ala-Glu) moieties; printed: Trp-Ser-Glu-Arg-Phe-Tyr-Glu-Cys-Cys-Lys-Glu)
final HPLC purity (UV 220 nm): >80%

cyclo(Ala-Glu)-Trp-(Glu-Trp-Asp-Leu-Val-Gly-Ile-Pro-Gly-Lys-Arg-Ser-Glu-Arg-Phe-Tyr-Cys-Cys-Lys-Glu) (EWDLVGIPGKRSERFYCCKE; cyclo(Ala-Glu)-Trp N-terminal cyclic moiety; printed: Glu-Trp-Asp-Leu-Val-Gly-Ile-Pro-Gly-Lys-Arg-Ser-Glu-Arg-Phe-Tyr-Cys-Cys-Lys-Glu)
final HPLC purity (UV 226 nm): 98%
